Laboratory results taken from US20090247540A1 (published 2009).
Results are given in words; binding and its absence hold for the method and conditions named. Binding seen in cells or lysates may run through a third protein. Some binding calls cover weakened binding; strength is not graded here.

Amino acid sequences for entries named in this document (tags omitted). A change or cut given only in a name is not applied to a line headed by its entry. Residues count along the entry.
UniProt P29317, residues 24-976: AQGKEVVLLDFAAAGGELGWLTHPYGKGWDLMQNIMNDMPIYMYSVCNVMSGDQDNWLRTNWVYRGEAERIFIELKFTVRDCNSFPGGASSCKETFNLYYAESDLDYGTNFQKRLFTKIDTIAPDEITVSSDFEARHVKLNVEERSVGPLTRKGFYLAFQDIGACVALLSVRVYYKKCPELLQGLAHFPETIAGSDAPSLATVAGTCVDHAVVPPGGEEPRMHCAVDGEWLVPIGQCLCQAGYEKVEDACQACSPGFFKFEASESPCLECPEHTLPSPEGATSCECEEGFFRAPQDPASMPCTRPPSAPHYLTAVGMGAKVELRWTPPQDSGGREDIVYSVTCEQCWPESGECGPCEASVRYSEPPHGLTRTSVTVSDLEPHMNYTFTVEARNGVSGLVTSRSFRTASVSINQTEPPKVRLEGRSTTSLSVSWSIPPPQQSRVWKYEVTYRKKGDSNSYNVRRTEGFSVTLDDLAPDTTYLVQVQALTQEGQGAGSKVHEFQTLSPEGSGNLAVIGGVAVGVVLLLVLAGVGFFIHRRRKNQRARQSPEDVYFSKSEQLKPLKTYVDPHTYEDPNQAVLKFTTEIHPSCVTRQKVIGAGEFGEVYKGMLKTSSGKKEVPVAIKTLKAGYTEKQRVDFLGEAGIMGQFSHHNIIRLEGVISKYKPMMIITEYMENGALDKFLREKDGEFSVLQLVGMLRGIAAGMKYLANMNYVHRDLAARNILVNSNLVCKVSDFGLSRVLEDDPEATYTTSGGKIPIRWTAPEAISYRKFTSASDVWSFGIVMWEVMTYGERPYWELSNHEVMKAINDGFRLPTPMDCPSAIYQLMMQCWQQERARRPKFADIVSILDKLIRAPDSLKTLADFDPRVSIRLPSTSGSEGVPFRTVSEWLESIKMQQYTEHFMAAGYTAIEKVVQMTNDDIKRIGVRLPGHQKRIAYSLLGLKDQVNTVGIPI
UniProt Q03145, residues 26-977: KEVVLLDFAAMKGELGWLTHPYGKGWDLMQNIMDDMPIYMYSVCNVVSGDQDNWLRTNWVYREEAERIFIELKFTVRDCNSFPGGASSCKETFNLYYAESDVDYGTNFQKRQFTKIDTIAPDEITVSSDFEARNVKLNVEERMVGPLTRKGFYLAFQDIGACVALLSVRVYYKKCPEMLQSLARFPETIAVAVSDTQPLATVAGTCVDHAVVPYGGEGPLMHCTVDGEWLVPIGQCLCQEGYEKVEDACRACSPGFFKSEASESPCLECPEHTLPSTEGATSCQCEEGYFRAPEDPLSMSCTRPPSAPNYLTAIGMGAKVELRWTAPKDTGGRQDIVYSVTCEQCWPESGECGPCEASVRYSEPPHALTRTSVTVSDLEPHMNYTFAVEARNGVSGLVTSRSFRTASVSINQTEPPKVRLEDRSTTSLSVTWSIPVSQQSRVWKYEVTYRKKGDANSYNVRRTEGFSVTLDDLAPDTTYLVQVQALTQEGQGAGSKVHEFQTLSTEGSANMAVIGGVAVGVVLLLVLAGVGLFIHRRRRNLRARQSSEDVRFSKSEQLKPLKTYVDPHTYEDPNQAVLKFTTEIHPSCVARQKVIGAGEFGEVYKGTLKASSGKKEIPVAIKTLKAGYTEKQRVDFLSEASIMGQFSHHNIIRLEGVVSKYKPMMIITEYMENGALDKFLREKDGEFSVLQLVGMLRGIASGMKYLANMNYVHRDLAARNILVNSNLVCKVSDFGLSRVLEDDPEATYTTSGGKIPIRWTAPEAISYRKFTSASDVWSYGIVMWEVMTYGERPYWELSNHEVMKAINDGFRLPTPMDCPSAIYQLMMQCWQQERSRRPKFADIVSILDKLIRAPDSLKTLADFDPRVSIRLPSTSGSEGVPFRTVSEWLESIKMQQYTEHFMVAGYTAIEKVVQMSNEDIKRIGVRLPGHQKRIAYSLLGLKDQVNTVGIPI
UniProt P20827: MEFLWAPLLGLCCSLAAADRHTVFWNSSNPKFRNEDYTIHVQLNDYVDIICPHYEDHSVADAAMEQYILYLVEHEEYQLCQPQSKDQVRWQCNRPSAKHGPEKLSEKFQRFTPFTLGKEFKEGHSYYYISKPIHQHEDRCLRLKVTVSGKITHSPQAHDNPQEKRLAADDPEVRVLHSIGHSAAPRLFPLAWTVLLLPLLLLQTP

What was measured:
[1] = target: EphA2 receptor of human cancer cells (PC-3, DU-145, lung cancer lines) (human) (UniProt P29317); experiment: pull-down from PC3 cell lysates with ephrinA1-Fc, anti-EphA2 blot
[2] = target: mouse EphA2 (primary keratinocytes) (mouse) (UniProt Q03145); experiment: pull-down from mouse keratinocyte lysates, blot for total EphA2
[3] = target: mouse EphA2 (primary keratinocytes) (mouse) (UniProt Q03145); experiment: pull-down from mouse keratinocyte lysates

Measured: binding

ephrin-A1-Fc (ephrin-A1 fused to the heavy chain of human IgG1) (from UniProt P20827 19-182) (Fc fusion)
binds: [1] | [2] | [3]
